# Reference: the supplement of paper PMC11006884
# The chains behind the UniProt entries cited, without tags or fusion partners. Where a name states a change or a piece, a line headed by the entry shows the natural chain unless it says otherwise.
# UniProt Q9NZL9, whole entry, looked up: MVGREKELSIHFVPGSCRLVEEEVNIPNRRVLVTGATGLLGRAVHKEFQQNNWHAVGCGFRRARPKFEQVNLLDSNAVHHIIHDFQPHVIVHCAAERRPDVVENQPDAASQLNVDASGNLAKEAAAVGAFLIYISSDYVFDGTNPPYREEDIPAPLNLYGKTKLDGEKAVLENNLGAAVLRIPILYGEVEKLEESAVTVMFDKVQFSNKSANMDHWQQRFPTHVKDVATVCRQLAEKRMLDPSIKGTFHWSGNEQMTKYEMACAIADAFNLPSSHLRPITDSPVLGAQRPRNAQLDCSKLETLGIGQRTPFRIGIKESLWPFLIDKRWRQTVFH
# UniProt Q9P1F3: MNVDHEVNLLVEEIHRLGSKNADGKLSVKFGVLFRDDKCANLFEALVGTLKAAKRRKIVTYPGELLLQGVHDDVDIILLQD
# UniProt Q9P2J5: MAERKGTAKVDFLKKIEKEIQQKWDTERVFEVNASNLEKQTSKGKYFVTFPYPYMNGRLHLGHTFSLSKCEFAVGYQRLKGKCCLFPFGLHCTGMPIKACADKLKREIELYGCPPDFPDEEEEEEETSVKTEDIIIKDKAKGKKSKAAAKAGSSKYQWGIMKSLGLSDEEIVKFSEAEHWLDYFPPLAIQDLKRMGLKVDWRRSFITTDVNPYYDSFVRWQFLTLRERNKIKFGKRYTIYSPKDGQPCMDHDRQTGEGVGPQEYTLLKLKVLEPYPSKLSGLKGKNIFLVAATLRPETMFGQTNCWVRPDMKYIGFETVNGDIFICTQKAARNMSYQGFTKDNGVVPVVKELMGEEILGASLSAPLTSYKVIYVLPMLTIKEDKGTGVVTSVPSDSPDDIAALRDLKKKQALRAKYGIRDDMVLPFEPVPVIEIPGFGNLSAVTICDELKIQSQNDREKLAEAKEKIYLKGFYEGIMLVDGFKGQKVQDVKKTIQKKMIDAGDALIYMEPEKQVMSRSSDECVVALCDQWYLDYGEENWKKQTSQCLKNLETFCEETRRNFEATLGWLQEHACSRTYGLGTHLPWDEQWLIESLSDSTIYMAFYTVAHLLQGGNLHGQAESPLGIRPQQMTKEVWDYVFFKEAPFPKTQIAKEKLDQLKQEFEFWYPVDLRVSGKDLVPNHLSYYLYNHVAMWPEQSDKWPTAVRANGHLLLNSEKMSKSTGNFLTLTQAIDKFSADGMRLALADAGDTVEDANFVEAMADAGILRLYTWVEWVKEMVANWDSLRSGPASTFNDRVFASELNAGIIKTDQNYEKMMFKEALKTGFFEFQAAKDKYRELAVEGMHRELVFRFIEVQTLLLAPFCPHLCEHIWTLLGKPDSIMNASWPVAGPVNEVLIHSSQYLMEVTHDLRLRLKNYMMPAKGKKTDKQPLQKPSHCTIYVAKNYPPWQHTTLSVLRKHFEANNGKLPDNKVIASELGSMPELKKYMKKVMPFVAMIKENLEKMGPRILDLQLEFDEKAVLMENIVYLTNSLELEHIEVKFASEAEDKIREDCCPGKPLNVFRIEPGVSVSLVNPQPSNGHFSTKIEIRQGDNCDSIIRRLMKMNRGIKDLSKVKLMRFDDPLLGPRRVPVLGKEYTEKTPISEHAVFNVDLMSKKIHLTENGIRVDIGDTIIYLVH
# UniProt Q9NYY8: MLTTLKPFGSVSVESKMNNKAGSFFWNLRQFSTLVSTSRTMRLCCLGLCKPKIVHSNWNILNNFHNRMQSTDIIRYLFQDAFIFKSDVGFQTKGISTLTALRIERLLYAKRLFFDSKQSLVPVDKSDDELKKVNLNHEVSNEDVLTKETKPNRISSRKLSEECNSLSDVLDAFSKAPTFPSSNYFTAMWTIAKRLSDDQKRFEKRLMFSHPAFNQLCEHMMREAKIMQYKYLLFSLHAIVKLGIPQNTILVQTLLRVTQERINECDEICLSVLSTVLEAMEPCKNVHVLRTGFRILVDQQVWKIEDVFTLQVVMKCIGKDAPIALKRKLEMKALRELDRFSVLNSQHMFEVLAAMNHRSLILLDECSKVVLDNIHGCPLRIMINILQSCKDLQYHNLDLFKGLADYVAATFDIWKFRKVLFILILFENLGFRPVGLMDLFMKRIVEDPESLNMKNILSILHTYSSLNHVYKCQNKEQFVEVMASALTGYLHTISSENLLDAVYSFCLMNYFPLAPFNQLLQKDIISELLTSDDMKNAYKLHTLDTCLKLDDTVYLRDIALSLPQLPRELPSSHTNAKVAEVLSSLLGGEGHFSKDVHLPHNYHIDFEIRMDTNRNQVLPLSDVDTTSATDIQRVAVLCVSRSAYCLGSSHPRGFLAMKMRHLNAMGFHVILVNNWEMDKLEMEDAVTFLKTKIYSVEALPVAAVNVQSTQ
# UniProt Q9UBB4: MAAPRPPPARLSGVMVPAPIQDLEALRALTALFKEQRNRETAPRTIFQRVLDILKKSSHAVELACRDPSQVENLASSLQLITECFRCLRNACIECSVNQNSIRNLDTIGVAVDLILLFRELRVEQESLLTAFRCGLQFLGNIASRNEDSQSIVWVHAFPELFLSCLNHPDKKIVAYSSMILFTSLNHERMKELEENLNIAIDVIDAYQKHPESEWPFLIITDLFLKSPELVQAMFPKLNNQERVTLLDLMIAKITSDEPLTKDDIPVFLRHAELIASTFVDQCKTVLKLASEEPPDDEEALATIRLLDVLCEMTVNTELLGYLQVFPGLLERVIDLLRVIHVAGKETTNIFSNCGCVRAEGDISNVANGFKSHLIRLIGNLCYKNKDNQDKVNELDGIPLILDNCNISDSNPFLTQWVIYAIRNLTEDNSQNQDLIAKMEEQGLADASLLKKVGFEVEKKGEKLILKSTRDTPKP
# UniProt Q9UBS0: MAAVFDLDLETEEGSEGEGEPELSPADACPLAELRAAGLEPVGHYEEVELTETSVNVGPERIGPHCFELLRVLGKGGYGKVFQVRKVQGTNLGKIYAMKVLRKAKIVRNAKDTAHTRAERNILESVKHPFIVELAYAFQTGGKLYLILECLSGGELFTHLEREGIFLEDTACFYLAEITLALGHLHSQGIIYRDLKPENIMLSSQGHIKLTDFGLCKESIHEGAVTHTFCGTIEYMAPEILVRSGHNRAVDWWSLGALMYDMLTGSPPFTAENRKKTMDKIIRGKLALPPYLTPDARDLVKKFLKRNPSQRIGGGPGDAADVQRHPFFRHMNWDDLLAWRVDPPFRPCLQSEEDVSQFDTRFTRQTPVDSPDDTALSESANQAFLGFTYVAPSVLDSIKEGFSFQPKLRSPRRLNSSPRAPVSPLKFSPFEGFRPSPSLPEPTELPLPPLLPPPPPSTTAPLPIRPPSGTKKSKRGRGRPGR
# UniProt Q9UH62: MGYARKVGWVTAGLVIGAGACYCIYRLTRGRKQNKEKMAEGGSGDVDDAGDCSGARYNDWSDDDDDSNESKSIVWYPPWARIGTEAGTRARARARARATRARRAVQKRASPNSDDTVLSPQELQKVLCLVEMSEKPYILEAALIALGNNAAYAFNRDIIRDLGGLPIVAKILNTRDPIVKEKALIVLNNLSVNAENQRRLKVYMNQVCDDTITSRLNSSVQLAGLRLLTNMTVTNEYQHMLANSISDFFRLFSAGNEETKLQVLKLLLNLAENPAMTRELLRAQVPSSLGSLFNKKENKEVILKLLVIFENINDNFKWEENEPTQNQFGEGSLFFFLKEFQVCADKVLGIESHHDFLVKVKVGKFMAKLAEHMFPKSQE
# UniProt Q9NVI7: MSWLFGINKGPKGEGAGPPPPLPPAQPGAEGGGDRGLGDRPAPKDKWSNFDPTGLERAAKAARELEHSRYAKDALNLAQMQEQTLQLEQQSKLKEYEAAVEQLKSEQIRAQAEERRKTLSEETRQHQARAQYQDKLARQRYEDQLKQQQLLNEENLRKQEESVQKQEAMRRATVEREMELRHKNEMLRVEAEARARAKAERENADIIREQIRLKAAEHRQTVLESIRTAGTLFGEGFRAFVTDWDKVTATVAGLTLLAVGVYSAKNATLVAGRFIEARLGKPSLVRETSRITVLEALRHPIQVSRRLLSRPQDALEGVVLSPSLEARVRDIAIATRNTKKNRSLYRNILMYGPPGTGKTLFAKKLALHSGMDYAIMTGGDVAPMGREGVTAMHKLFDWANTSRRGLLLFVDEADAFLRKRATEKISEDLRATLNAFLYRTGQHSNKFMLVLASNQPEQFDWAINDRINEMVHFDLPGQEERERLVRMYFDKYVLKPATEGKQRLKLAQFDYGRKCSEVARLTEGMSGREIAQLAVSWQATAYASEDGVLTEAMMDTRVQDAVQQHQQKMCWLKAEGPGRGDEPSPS
# UniProt Q9NYU2: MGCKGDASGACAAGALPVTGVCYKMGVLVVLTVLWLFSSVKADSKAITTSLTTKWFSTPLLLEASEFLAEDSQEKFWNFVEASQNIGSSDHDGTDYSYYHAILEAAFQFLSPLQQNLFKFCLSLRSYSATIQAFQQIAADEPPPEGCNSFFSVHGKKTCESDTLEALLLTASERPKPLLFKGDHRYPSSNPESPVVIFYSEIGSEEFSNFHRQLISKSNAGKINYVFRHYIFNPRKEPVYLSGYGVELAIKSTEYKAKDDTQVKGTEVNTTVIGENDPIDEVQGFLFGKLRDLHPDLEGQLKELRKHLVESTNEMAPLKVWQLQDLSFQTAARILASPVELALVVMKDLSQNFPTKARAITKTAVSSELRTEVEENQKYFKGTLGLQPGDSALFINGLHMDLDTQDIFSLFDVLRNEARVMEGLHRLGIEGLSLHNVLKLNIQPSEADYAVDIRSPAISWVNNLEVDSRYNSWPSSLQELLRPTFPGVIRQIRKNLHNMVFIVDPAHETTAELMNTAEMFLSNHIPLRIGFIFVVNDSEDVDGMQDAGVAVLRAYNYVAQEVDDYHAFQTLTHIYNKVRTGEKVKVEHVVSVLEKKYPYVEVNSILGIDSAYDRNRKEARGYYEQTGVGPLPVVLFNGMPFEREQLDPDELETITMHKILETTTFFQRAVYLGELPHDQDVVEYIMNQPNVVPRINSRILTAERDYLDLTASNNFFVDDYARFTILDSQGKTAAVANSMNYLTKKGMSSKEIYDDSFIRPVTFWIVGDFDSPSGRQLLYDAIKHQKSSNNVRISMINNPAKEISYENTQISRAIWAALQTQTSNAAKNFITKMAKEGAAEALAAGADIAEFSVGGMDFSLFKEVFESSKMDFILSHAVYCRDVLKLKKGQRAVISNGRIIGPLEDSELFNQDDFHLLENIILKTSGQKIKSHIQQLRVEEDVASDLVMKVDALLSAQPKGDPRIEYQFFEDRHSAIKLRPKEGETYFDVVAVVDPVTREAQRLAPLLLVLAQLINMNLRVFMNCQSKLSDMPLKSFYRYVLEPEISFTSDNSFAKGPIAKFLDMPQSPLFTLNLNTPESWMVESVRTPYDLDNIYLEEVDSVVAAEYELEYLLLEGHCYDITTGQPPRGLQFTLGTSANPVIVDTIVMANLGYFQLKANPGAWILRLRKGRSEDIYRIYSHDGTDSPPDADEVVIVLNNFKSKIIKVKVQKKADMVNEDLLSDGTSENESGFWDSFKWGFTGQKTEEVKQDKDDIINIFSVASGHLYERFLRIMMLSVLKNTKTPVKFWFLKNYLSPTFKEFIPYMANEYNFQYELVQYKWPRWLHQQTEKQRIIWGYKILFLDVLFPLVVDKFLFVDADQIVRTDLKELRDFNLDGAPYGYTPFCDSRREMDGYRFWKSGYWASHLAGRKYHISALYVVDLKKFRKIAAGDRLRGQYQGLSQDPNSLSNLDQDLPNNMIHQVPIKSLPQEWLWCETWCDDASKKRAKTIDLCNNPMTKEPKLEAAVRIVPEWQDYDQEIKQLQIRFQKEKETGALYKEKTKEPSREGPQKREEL
# UniProt Q9NWY4: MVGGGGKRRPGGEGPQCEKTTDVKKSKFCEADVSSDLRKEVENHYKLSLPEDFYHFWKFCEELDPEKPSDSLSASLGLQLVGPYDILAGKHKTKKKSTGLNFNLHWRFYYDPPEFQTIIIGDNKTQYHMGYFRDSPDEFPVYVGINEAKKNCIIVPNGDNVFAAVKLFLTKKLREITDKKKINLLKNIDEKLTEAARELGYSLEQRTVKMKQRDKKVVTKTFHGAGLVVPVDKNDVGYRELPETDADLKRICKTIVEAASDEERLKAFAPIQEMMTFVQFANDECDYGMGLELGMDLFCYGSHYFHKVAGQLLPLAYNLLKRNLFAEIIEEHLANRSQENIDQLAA
# Only a part is listed here, and it is no random draw.
# Compound: COC(=O)C#Cc1ccccc1 [methyl 3-phenylpropiolate]
# Experiment: log2 ratio of iodoacetamide-alkyne labeling of the cysteine site, DMSO over compound (competition); higher = stronger covalent engagement of the cysteine by the compound, active = 1 or more
# Details: 500 µM; treatment time 1 h; system: HEK293T cell lysate
# Outline: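 HEK293T lysate at 2 mg/mL was treated with vehicle or electrophile (500 µM) for 1 h at ambient temperature, then labelled with iodoacetamide alkyne (1 h), clicked to sCIP-TMT reagents, pooled, digested with trypsin overnight at 37 °C, enriched on streptavidin and eluted with acid. Peptides were analysed by Orbitrap Eclipse LC-MS/MS with FAIMS and quantified in FragPipe, using duplicate channels and three replicates, with cysteines quantified in only one replicate excluded. The log2 competition ratio for each cysteine is the mean control-channel reporter intensity divided by the mean compound-channel reporter intensity.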
row,Target,log2 ratio of iodoacetamide-alkyne labeling
1,IFT172 C1686 (UniProt Q9UG01),inactive: -0.0302
2,OGFR C330 (UniProt Q9NZT2),inactive: 0.375
3,MAT2B C58 (UniProt Q9NZL9),inactive: 0.162
4,DDX19A C224 (UniProt Q9NUU7),inactive: 0.0835
5,STK39 C525 (UniProt Q9UEW8),inactive: 0.296
6,UniProt Q9P289_C352,inactive: 0.0559
7,GAR1 C80 (UniProt Q9NY12),inactive: 0.132
8,UniProt Q9P1F3_C39,inactive: 0.0685
9,MTPAP C242 (UniProt Q9NVV4),inactive: 0.146
10,DPP3 C176 (UniProt Q9NY33),inactive: 0.182
11,TBC1D13 C145 (UniProt Q9NVG8),inactive: 0.0279
12,ANKFY1 C675 (UniProt Q9P2R3),inactive: 0.216
13,LARS C248 (UniProt Q9P2J5),inactive: -0.687
14,FASTKD2 C163 (UniProt Q9NYY8),inactive: -0.227
15,MRPS18A C73 (UniProt Q9NVS2),inactive: 0.11
16,ATXN10 C356 (UniProt Q9UBB4),active: 1.32
17,MRPS18A C186 (UniProt Q9NVS2),inactive: 0.257
18,FTSJ1 C49 (UniProt Q9UET6),inactive: 0.248
19,LIMA1 C316 (UniProt Q9UHB6),inactive: 0.139

# 3 consecutive records from above, quoted:
row,Target,log2 ratio of iodoacetamide-alkyne labeling
11,TBC1D13 C145 (UniProt Q9NVG8),inactive: 0.0279
12,ANKFY1 C675 (UniProt Q9P2R3),inactive: 0.216
13,LARS C248 (UniProt Q9P2J5),inactive: -0.687

# Remaining list, next part

row,Target,log2 ratio of iodoacetamide-alkyne labeling
1,NDOR1 C507 (UniProt Q9UHB4),inactive: -0.123
2,UBAP1 C45 (UniProt Q9NZ09),inactive: 0.273
3,UniProt Q9UBS0_C348,inactive: 0.331
4,ARMCX3 C52 (UniProt Q9UH62),inactive: 0.474
5,AASS C87 (UniProt Q9UDR5),inactive: 0.102
6,UniProt Q9NXE8_C107,inactive: 0.236
7,ITSN2 C810 (UniProt Q9NZM3),inactive: 0.0149
8,GNL3L C213 (UniProt Q9NVN8),inactive: 0.538
9,UniProt Q9NW64_C84,inactive: -0.264
10,NDRG3 C359 (UniProt Q9UGV2),inactive: 0.319
11,ATAD3A C618 (UniProt Q9NVI7),inactive: 0.539
12,UniProt Q9P289_C392,inactive: 0.322
13,MAT2B C17 (UniProt Q9NZL9),inactive: 0.566
14,VPS18 C22 (UniProt Q9P253),inactive: 0.542
15,UniProt Q9NYU2_C1386,inactive: 0.739
16,UniProt Q9NWY4_C29,inactive: 0.445
17,LYAR C51 (UniProt Q9NX58),inactive: 0.0295
18,CTSZ C92 (UniProt Q9UBR2),inactive: -0.349
